Test systems include MZ2-MEL; MeWo; RPMI7951; RVH-421; SkMel28; SkMel2; SkMel30; UACC62; SkMel5; UACC257.
Holding throughout (assay): cleaved PARP positive nuclei fraction relative to DMSO control; melanoma cells; higher = more apoptosis
What all share (conditions): library dose: low library concentration; 72 h

The other results are listed elsewhere or left out. Repeats are few or missing, and single values can be far off.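 Cells were imaged in 1,536-well plates, and nuclei stained with an antibody against cleaved PARP were counted against all DNA-stained nuclei to give the apoptosis fraction. Screening doses were chosen to leave most cells alive, and resting and induced cleaved-PARP levels differ strongly between cell lines.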

As to `OCc1c[nH]c2ccccc12` [Indole-3-carbinol] + C#Cc1cccc(Nc2ncnc3cc(OCCOC)c(OCCOC)cc23)c1 [erlotinib] (first compound 0.8 µM, partner dose 0.8 µM), the “cleaved PARP positive nuclei fraction” value was 138% in the assay on MZ2-MEL; 87.7% in the assay with MeWo; 73.2% in the assay with RPMI7951; 81.8% with RVH-421; 89.6% in the assay with SkMel28; 137% with SkMel2. Moreover, the “cleaved PARP positive nuclei fraction” value worked out at 66.8% in the assay on SkMel30 and 143% in the assay with UACC62.
Take `OCc1c[nH]c2ccccc12` [Indole-3-carbinol] + C[C@]1(c2nc3c(C(N)=O)cccc3[nH]2)CCCN1 [Veliparib] (first compound 0.8 µM, partner dose 1.4 µM): the “cleaved PARP positive nuclei fraction” value in the assay with MZ2-MEL is 134%; with MeWo, 56.5%; with RPMI7951, 74.3%; in the assay on RVH-421, 76.7%; in the assay with SkMel28, 39.7%; in the assay with SkMel2, 95.4%. Further, the “cleaved PARP positive nuclei fraction” value came out at 88.3% in the assay with SkMel30 and 74.5% in the assay on UACC62.
As to `Cn1c(Nc2ccc(C(F)(F)F)cc2)nc2cc(Oc3ccnc(-c4ncc(C(F)(F)F)[nH]4)c3)ccc21` + Cn1nnc2c(C(N)=O)ncn2c1=O [temozolomide] (first compound 0.08 µM, partner dose 2 µM), the “cleaved PARP positive nuclei fraction” value in the assay with MZ2-MEL was 43.6%; in the assay on MeWo, 156%; in the assay on RPMI7951, 122%; in the assay on RVH-421 it was 101%; in the assay with SkMel28 it was 179%; in the assay on SkMel2, 233%. Further, the entries for the “cleaved PARP positive nuclei fraction” value in the assay with SkMel30 and with UACC62 were 150% and 329%, respectively.
`C=CCNC1=C2C[C@@H](C)C[C@H](OC)[C@H](O)[C@@H](C)/C=C(\C)[C@H](OC(N)=O)[C@@H](OC)/C=C\C=C(/C)C(=O)NC(=CC1=O)C2=O` [Tanespimycin] + C#Cc1cccc(Nc2ncnc3cc(OCCOC)c(OCCOC)cc23)c1 [erlotinib] (first compound 0.002 µM, partner dose 0.8 µM): the “cleaved PARP positive nuclei fraction” value amounted to 69.2% with MZ2-MEL; 70.9% in the assay with MeWo; 190% with RPMI7951; 92.5% in the assay with RVH-421; 103% in the assay with SkMel28; 17.6% with SkMel2. For the same molecule, the “cleaved PARP positive nuclei fraction” value in the assay with SkMel30 is 60.1%; in the assay with UACC62, 98.6%.
Take `COCC[n+]1c2c(n(Cc3cnccn3)c1C)C(=O)c1ccccc1C2=O` + C[C@]1(c2nc3c(C(N)=O)cccc3[nH]2)CCCN1 [Veliparib] (first compound 0.0004 µM, partner dose 1.4 µM): the “cleaved PARP positive nuclei fraction” value was determined as 424% in the assay with MZ2-MEL; 83.3% with MeWo; 77.6% in the assay with RPMI7951; 172% with RVH-421; 84.5% with SkMel28; 156% in the assay with SkMel2. In addition, the “cleaved PARP positive nuclei fraction” value with SkMel30 stood at 148%; with UACC62, 90.7%.
`C=CCNC1=C2C[C@@H](C)C[C@H](OC)[C@H](O)[C@@H](C)/C=C(\C)[C@H](OC(N)=O)[C@@H](OC)/C=C\C=C(/C)C(=O)NC(=CC1=O)C2=O` [Tanespimycin] + Cn1c(Nc2ccc(C(F)(F)F)cc2)nc2cc(Oc3ccnc(-c4ncc(C(F)(F)F)[nH]4)c3)ccc21 [CHIR265] (first compound 0.002 µM, partner dose 0.08 µM): the “cleaved PARP positive nuclei fraction” value in the assay with MZ2-MEL was found to be 121%; with MeWo, 168%; with RPMI7951, 141%; in the assay with RVH-421, 145%; in the assay on SkMel28, 133%; in the assay on SkMel2, 165%. The “cleaved PARP positive nuclei fraction” value came to 670% in the assay on SkMel30 and 331% in the assay on UACC62.
With `Cn1c(Nc2ccc(C(F)(F)F)cc2)nc2cc(Oc3ccnc(-c4ncc(C(F)(F)F)[nH]4)c3)ccc21` + C[C@]1(c2nc3c(C(N)=O)cccc3[nH]2)CCCN1 [Veliparib] (first compound 0.08 µM, partner dose 1.4 µM), the “cleaved PARP positive nuclei fraction” value stood at 126% in the assay on MZ2-MEL; 186% in the assay on MeWo; 107% in the assay with RPMI7951; 125% in the assay with RVH-421; 78.1% in the assay on SkMel28; 139% in the assay on SkMel2. Also, the “cleaved PARP positive nuclei fraction” value stood at 84.8% in the assay with SkMel30 and 152% in the assay on UACC62.
Turning to `Cn1c(Nc2ccc(C(F)(F)F)cc2)nc2cc(Oc3ccnc(-c4ncc(C(F)(F)F)[nH]4)c3)ccc21` + Nc1cccc2c1CN(C1CCC(=O)NC1=O)C2=O [lenalidomide] (first compound 0.08 µM, partner dose 1 µM), the “cleaved PARP positive nuclei fraction” value in the assay with MZ2-MEL was determined as 76.3%; in the assay on MeWo, 158%; in the assay on RPMI7951, 66.1%; in the assay on RVH-421, 182%; in the assay with SkMel28, 149%; in the assay with SkMel2, 120%. The figures for the “cleaved PARP positive nuclei fraction” value with SkMel30 and in the assay on UACC62 were 168% and 383%, respectively.
In the case of `C=CCn1c(=O)c2cnc(Nc3ccc(N4CCN(C)CC4)cc3)nc2n1-c1cccc(C(C)(C)O)n1` + NCC(=O)Nc1ccc(-n2nc(C(F)(F)F)cc2-c2ccc3c(ccc4ccccc43)c2)cc1 [OSU03012] (first compound 0.02 µM, partner dose 1 µM), the “cleaved PARP positive nuclei fraction” value in the assay on MZ2-MEL is 134%; with MeWo, 1280%; in the assay on RPMI7951, 109%; in the assay with RVH-421 it was 47.7%; in the assay on SkMel28, 168%; in the assay with SkMel2 it was 180%. Also, the “cleaved PARP positive nuclei fraction” value in the assay on SkMel30 amounted to 481%; in the assay with SkMel5, 144%; in the assay on UACC257 it was 56.9%; in the assay with UACC62, 110%.
Take `Cc1nc(Nc2ncc(C(=O)Nc3c(C)cccc3Cl)s2)cc(N2CCN(CCO)CC2)n1` [dasatanib] + Cn1nnc2c(C(N)=O)ncn2c1=O [temozolomide] (first compound 0.004 µM, partner dose 2 µM): the “cleaved PARP positive nuclei fraction” value with MZ2-MEL stood at 107%; with MeWo it was 84.3%; in the assay with RPMI7951, 155%; with RVH-421, 78.5%; in the assay with SkMel28, 150%; in the assay on SkMel2, 72.8%. Besides, the “cleaved PARP positive nuclei fraction” value in the assay with SkMel30 is 117%; in the assay on UACC62 it was 256%.
For the molecule `CC(=O)c1c(C)c2cnc(Nc3ccc(N4CCNCC4)cn3)nc2n(C2CCCC2)c1=O` [palbociclib] + C[C@]1(c2nc3c(C(N)=O)cccc3[nH]2)CCCN1 [Veliparib] (first compound 0.04 µM, partner dose 1.4 µM), the “cleaved PARP positive nuclei fraction” value with MZ2-MEL was 108%; in the assay on MeWo, 94%; with RPMI7951 it was 47%; with RVH-421, 90.1%; in the assay on SkMel28, 106%; in the assay on SkMel2 it was 134%. The “cleaved PARP positive nuclei fraction” value in the assay with SkMel30 stood at 84.2%; in the assay with UACC62, 181%.
As to `CC(=O)c1c(C)c2cnc(Nc3ccc(N4CCNCC4)cn3)nc2n(C2CCCC2)c1=O` [palbociclib] + Nc1cccc2c1CN(C1CCC(=O)NC1=O)C2=O [lenalidomide] (first compound 0.04 µM, partner dose 1 µM), the “cleaved PARP positive nuclei fraction” value with MZ2-MEL is 110%; in the assay on MeWo it was 53.1%; with RPMI7951 it was 44.5%; in the assay on RVH-421, 124%; in the assay on SkMel28, 81.9%; in the assay with SkMel2 it was 90.5%. In addition, the “cleaved PARP positive nuclei fraction” value in the assay on SkMel30 is 53.1%; with UACC62 it was 160%.
